Out of some 320,000 compounds screened, about 620 (0.19%) were called active. The shares of active, inactive and inconclusive entries below differ from those in the screen. The call rests on the fitted dose curve; in most records, active means well fitted activation curve with a large enough effect; inconclusive means small, poorly fitted or top-dose-only effect; inactive means no such curve, though single readings can be large or run the other way. Potencies beside an inconclusive call are fits to weak or partial responses and may not hold up.
Assay: qHTS Assay for Identifying a Potential Treatment of Ataxia-Telangiectasia; further: nearly all actives have a fitted effect of over 45% in size; on activation: % of control where 0% means no effect
Details: […] A-T fibroblasts, KAP-1 phosphorylation AlphaLISA, neocarzinostatin DNA damage 30 min before lysis; series mostly up to 57.5 µM; activation: at the top concentration
Excerpt: NIH Chemical Genomics Center [NCGC] NIH Molecular Libraries Probe Centers Network [MLPCN] MLPCN Grant: MH089030-01 Assay Submitter (PI): Wei Zheng and Yosef Shiloh Ataxia-telangiectasia (A-T) is a devastating and progressive disease for which, there is no cure. Although A-T is a multisystem disease, it is stereotyped characterized by its neurological symptoms such as truncal ataxia, due to cerebellar cortical degeneration of the Purkinje and granule cells. Other symptoms of A-T are telangiectasias (dilated blood vessels), primary immunodeficiency, marked sensitivity to ionizing radiation (IR), chromosomal instability and predisposition to cancer. The underlying genetic cause of A-T is null mutations in the ATM (A-T mutated) gene. ATM is a nuclear serine/threonine kinase that functions as a master regulator of the cellular responses to double strand breaks (DSBs) in the DNA. Upon activation by DSBs, ATM phosphorylates a plethora of down stream targets, including KAP-1 on […]. KAP-1 phosphorylation occurs shortly in response to DSBs and mediates global chromatin relaxation, which facilitates DSB repair. To screen for small molecules that will compensate for the loss of ATM in cells derived from A-T patients, we monitored KAP-1 phosphorylation as a readout for ATM-like activity using an AlphaLISA assay.
qHTS Assay Protocol: Step,Parameter,Value,Description 1. Cell Plating, 3 ul, 500 cells/well in OPTI-MEM, 1% FBS, 1% Pen/Strep 2. Incubation, 16-24 hr, 37C, 5% CO2, 95% humidity 3. Library compounds, 23 nl, 76.7 - 0.61uM dilution series final concentration 4. Incubation, 60 min, 37C, 5% CO2, 95% humidity 5. Reagent, 1 ul, 1600 ng/ml NCS in PBS + 0.05% BSA + 0.005% Tween 20 6. Incubation, 30 min, 37C, 5% CO2, 95% humidity 7. Reagent, 1 ul, Premixed detection reagents and lysis buffer 8. Reagent, 1 ul, 0.6% Antifoam A 9. Incubation, 6 hr, 25C, 95% humidity 10. Readout, EnVision, EnVision plate reader. AlphaScreen 1536-well protocol Cells were plated using medium-binding white solid-bottom tissue culture treated Kalypsys plates. Multidrop dispense of 3 uL of […] (hTERT immortalized A-T patient fibroblast cells). Detection reagent and lysis buffer was 3.75nM Rab-a-pKAP1 antibody bound to 75 ng/ul AlphaScreen SA donor bead, 3.75 nM Biot-M-a-KAP1 antibody bound to AlphaLISA protein A acceptor bead, 0.5x protease inhibitor cocktail and 0.25x PerkinElmer lysis buffer. EnVision protocol for 1536-well AlphaScreen read (30ms excitation, 100ms read), about 10 min/plate.
Potency means the concentration at half of the fitted maximal effect.

| SMILES | Potency | activation |
| --- | --- | --- |
| CCOC(=O)c1cc(-c2ccccc2)nc2nc(N(CC)CC)sc12 | inconclusive: 25.1 µM [activator, partial curve] |  |
| COC(=O)c1cc2ccsc2n1CC(=O)N1CCCc2ccccc21 | inconclusive: 0.631 µM [activator, partial curve, poor fit] |  |
| O=c1oc2cc(O)ccc2cc1S(=O)(=O)c1ccccc1 | inconclusive: 31.6 µM [activator, partial curve] |  |
| Cc1nnc(SCC(=O)NCCOc2ccc(Cl)cc2)n1-c1ccccc1 | inconclusive: 0.631 µM [activator, partial curve, poor fit] |  |
| CCOc1ccc2nc(NCCNC(=O)c3cc(OC)c(OC)c(OC)c3)c(C#N)cc2c1 | inconclusive: 20 µM [activator, partial curve] |  |
| COc1ccc(Br)cc1[C@H]1[C@H]2C=CC[C@@H](C)[C@@H]2C(=O)N1Cc1ccccc1 | active: 39.8 µM |  |
| CC1(C)Cc2c(sc3nc(N/N=C/c4ccccc4)[nH]c(=O)c23)CO1 |  | inactive: 10.4% |
| Cc1ccccc1NC(=S)N1CCN(c2ccccc2C)CC1 | inconclusive: 35.5 µM [activator, single point] |  |
| COc1ccc(C(=O)COC(=O)C2COc3ccccc3O2)cc1F (configuration not stated) |  | inactive: -38.3% |
| CC(=O)Nc1ccc(C=NNc2ccc([N+](=O)[O-])cc2S(=O)(=O)Nc2ccccc2C(=O)O)cc1 |  | inactive: -4.78% |
| CC(C)(C)OC(=O)C(Cc1ccc(OC(C)(C)C)cc1)NC(=O)CNC(=O)OCc1ccccc1 (configuration not stated) |  | inactive: -4.55% |
| c1ccc(-n2c3ccccc3c3ccccc32)cc1 | active: 25.1 µM |  |
| Cc1nnc(N/N=C/c2ccccn2)[nH]c1=O | inconclusive: 39.8 µM [activator, single point] |  |
| CC[C@H]1OC(=O)C[C@@H](O)[C@H](C)[C@@H](O[C@@H]2O[C@H](C)C[C@H](N(C)C)[C@H]2O)[C@@H](CC=O)C[C@@H](C)C(=O)C=C[C@]2(C)O[C@H]2[C@@H]1C | inconclusive: 39.8 µM [activator, single point] |  |
| COc1ccccc1C(C)NCC(=O)Nc1ccccc1C(F)(F)F (configuration not stated) |  | inactive: 11.6% |
| Cc1ccc(S(=O)(=O)NCc2ccccc2)cc1 | inconclusive: 50.1 µM [activator, partial curve, poor fit] |  |
| O=C(c1ccccc1)N1N=C(c2ccccc2O)CC1c1ccc(Br)cc1 (configuration not stated) | active: 17.8 µM |  |
| CCOC(=O)c1c(C)sc2c1N(C(=O)CCl)c1cc(Cl)ccc1S2 | inconclusive: 31.6 µM [activator, partial curve] |  |
| C=C(C)Cn1cnc2c(oc3nc4c(cc32)CCCC4)c1=O |  | inactive: -1.23% |
| CC(=O)NC(CCS(C)(=O)=O)C(=O)Nc1ccccc1Cl (configuration not stated) |  | inactive: 0.211% |
| Cn1c(=O)[nH]c(=O)c2[nH]c(N(Cc3ccccc3)Cc3ccccc3)nc21 | inconclusive: 39.8 µM [activator, single point] |  |
| COC(=O)c1ccc(C(=O)OC)c(NC(=O)/C=C/C(=O)O)c1 | inconclusive: 39.8 µM [activator, single point] |  |
| Fc1ccc(CN2CCN(C(c3ccccc3)c3ccccc3)CC2)cc1 | inconclusive: 39.8 µM [activator, single point] |  |
| Cc1cc(O)c(NC(=S)NC(=O)c2ccc(-c3ccc(Cl)cc3)o2)cc1C | inconclusive: 25.1 µM [activator, single point] |  |

Arranged by formula weight (largest number first): part of the list above

| SMILES | Potency | activation |
| --- | --- | --- |
| O=C(c1ccccc1)N1N=C(c2ccccc2O)CC1c1ccc(Br)cc1 (configuration not stated) | active: 17.8 µM |  |
| CCOC(=O)c1c(C)sc2c1N(C(=O)CCl)c1cc(Cl)ccc1S2 | inconclusive: 31.6 µM [activator, partial curve] |  |
| Cn1c(=O)[nH]c(=O)c2[nH]c(N(Cc3ccccc3)Cc3ccccc3)nc21 | inconclusive: 39.8 µM [activator, single point] |  |
| COc1ccccc1C(C)NCC(=O)Nc1ccccc1C(F)(F)F (configuration not stated) |  | inactive: 11.6% |

Continuation.

| SMILES | Potency | activation |
| --- | --- | --- |
| CCCc1ccc(Oc2cc(C)nc(N3CCOCC3)n2)cc1 | active: 25.1 µM |  |
| NC[C@@H]1O[C@H](C23CC4CC(CC(C4)C2)C3)Cc2c1ccc(O)c2O |  | inactive: -2.7% |
| CCCc1nn(C)c(C(=O)Nc2cccc(CC)c2)c1Cl | inconclusive: 39.8 µM [activator, single point] |  |
| FC(F)(F)c1ccccc1NC(=S)N/N=C1\CC2CC=CC12 (configuration not stated) | inconclusive: 3.16 µM [activator, partial curve] |  |
| N#CCSc1nc2[nH]ncc2c(=O)n1-c1ccccc1Br | inconclusive: 22.4 µM [activator, single point] |  |
| COCc1cc(C)nc(SCc2ccc(Cl)cc2)c1C#N | inconclusive: 4.47 µM [activator, single point] |  |
| S=c1[nH]nc(-c2ccccc2)n1/N=C/c1ccc(-c2ccccc2Cl)o1 | inconclusive: 31.6 µM [activator, single point] |  |
| Cc1ccn(-c2cccc(-n3ccc(C)n3)n2)n1 | inconclusive: 0.631 µM [activator, partial curve, poor fit] |  |
| CSCCC(NC(=O)C1CCCCC1)c1nc2ccccc2[nH]1 (configuration not stated) | inconclusive: 28.2 µM [activator, partial curve, poor fit] |  |
| COc1ccc(NC(=O)c2ccc(N3CCCC3=O)cc2)cc1Cl | inconclusive: 4.47 µM [activator, single point] |  |
| COc1ccc(CCNC(=O)CSc2nc(C)nc3sccc23)cc1OC | inconclusive: 39.8 µM [activator, single point] |  |
| O=C(COc1ccc(Br)cc1)NCC1COc2ccccc2O1 (configuration not stated) |  | inactive: 10.2% |
| CN(C)S(=O)(=O)c1ccc(C(=O)OCC2CC2(Cl)Cl)cc1 (configuration not stated) | inconclusive: 25.1 µM [activator, single point] |  |
| O=C1OCCN1C(=O)[C@H]1[C@H](c2ccccc2)C(c2cccc(Cl)c2)=NN1c1ccc(Br)cc1 | inconclusive: 15.8 µM [activator, partial curve] |  |
| Nc1nc(CSc2ncccn2)nc(Nc2ccccc2)n1 |  | inactive: -3.48% |
| COc1ccc(-n2c(=O)/c(=C\c3cccs3)s/c2=C(/C#N)C(=O)NCCN2CCOCC2)cc1 |  | inactive: -1.72% |
| Fc1ccc(C2CC(c3ccco3)=NN2c2ccccc2)cc1 (configuration not stated) | inconclusive: 100 µM [activator, partial curve] |  |
| COc1ccc(N2CCC(CNC(=S)Nc3c(C)cccc3C)C2)cc1 (configuration not stated) | active: 17.8 µM |  |
| CCN(CC)S(=O)(=O)c1ccc(NC(=O)c2cccnc2Cl)c(NC(=O)c2cccnc2Cl)c1 | inconclusive: 35.5 µM [activator, single point] |  |
| O=C(CNCc1cccs1)Nc1ccc(OC(F)(F)F)cc1 | inconclusive: 2.82 µM [activator, full curve, poor fit] |  |
| COc1cc(C#N)ccc1OCC(=O)Nc1cccc(S(=O)(=O)N2CCCC2)c1 | inconclusive: 4.47 µM [activator, partial curve] |  |
| COc1cc2c(C(=O)O)c(C)n(-c3ccccc3)c2c2ccccc12 | inconclusive: 39.8 µM [activator, single point] |  |
| Cc1ccc(C(C)C)c(OCC(=O)Nc2cccc(S(=O)(=O)NC3=NCCCCC3)c2)c1 | inconclusive: 5.01 µM [activator, single point] |  |
| CN1C[C@@H]2C(c3ccc(C(F)(F)F)cc3)C3(c4ccccc4)CC2(C3)[C@H]1c1ccccc1 (some centres not stated) | inconclusive: 39.8 µM [activator, single point] |  |

| SMILES | Potency | activation |
| --- | --- | --- |
| CCC(C)Sc1cccc(-c2nc3ccc(C)cn3c2NCc2ccccc2)c1 (configuration not stated) | active: 22.4 µM |  |
| COc1ccc(-n2c(=S)[nH]c3ccccc3c2=S)cc1 | active: 2.82 µM |  |
| Cc1ccc(O)c(C(=O)CC(=O)c2cccc(F)c2)c1 |  | inactive: -1.86% |
| CCCCN=Cc1sc2ccc(OCC)cc2c1O |  | inactive: 4.34% |
| CC(=O)Nc1ccc(/C=C/c2nc(-c3ccccc3O)n[nH]2)cc1 | inconclusive: 3.16 µM [activator, partial curve, poor fit] |  |
| O=C(CCl)N1CCN2C(=O)c3ccccc3C12c1ccc(Cl)cc1 (configuration not stated) | inconclusive: 25.1 µM [activator, single point] |  |
| Cc1ccc(C(C)C)c(OCC(=O)N/N=C/c2ccc(S(=O)(=O)O)o2)c1 | active: 14.1 µM |  |
| CCOc1ccccc1NC(=O)C(CC)Sc1nc2ccsc2c(=O)n1CCC(=O)O (configuration not stated) | inconclusive: 5.01 µM [activator, full curve, poor fit] |  |
| Cc1cc(C)c(NS(=O)(=O)c2ccc(NC(=O)c3cccs3)cc2)c(C)c1 |  | inactive: 7.06% |
| COc1ccccc1CNC(c1ccccc1)c1ccccc1 | active: 28.2 µM |  |
| CCC(=O)Nc1sc2c(c1C(N)=O)CCC2 |  | inactive: -0.775% |
| C/C(=N\NC(=O)Cn1nc(C)c([N+](=O)[O-])c1C)c1ccc(Cl)s1 | inconclusive: 5.62 µM [activator, partial curve] |  |
| Cc1ccccc1C(=O)N1CCN(c2ccc(NC(=O)c3ccco3)cc2Cl)CC1 |  | inactive: 3.79% |
| Cc1ccc(C)c(S(=O)(=O)N2CCC3(CC2)OCCO3)c1 |  | inactive: 17% |
| Cc1ccccc1-c1cc(-c2ccccc2O)on1 | inconclusive: 39.8 µM [activator, single point] |  |
| C=CCC(C)(NCc1ccccc1)c1ccc(C)cc1 (configuration not stated) | active: 39.8 µM |  |
| CN(C)/C=C(\C#N)C(=O)c1cccc(Oc2ccc(Br)cc2)c1 |  | inactive: 2.67% |
| O=C(CN1CCN(Cc2ccccc2)CC1)Nc1ccc(Cl)cc1 | inconclusive: 0.631 µM [activator, partial curve, poor fit] |  |
| CC(C)(C)OC(=O)[C@H](Cc1ccccc1)NC(=O)c1nc[nH]c1C(=O)NCCCCCN | inconclusive: 39.8 µM [activator, single point] |  |
| Cc1ccc(Cn2cccc(-c3nc4ccccc4s3)c2=O)cc1 | active: 28.2 µM |  |
| Cn1c(Sc2nc3ccccc3n2C)nc2ccccc21 | active: 20 µM |  |
| C=CCCN(C1CCCC1)S(=O)(=O)c1ccccc1Br | inconclusive: 39.8 µM [activator, single point] |  |
| Nn1c(Cc2ccccc2)nc2cc(Cl)ccc2c1=O |  | inactive: 1.04% |
| COCCNC(=O)c1c[nH]c2ccc(S(=O)(=O)N(C)c3ccc(C)c(C)c3)cc2c1=O | active: 7.08 µM |  |
